Measured values from publication PMC3084264.
No constants are given. Whether binding was seen depends on the method and setting. In cells and extracts the contact can be indirect.

Chains of the proteins cited; added tags and fusions are not shown.
UniProt Q56242: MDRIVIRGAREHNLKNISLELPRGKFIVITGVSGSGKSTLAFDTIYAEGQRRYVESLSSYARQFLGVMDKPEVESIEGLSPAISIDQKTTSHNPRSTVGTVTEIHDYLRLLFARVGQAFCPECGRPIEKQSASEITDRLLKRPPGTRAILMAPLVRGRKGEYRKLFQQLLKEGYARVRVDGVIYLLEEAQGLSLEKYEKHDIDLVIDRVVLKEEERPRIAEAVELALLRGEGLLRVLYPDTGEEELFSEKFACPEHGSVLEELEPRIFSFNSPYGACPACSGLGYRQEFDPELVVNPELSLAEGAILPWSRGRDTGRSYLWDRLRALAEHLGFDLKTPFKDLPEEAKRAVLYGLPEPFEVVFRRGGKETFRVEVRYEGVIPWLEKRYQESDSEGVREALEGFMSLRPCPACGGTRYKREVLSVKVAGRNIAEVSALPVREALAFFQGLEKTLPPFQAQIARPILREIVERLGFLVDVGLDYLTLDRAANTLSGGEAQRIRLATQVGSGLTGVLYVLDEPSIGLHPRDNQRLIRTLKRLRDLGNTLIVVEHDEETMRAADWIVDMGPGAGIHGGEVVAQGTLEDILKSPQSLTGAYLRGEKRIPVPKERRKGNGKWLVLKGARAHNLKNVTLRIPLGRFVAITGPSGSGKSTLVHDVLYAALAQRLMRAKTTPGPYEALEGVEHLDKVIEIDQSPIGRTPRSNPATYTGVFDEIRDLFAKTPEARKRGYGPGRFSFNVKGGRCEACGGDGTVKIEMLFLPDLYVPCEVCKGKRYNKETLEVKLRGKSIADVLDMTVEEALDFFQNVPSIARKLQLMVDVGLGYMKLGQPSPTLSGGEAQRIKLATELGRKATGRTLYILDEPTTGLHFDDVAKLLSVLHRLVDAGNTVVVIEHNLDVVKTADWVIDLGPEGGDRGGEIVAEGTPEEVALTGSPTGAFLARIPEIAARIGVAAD

Molecular target: T. thermophilus UvrA, the nucleotide-excision repair enzyme (endogenous) (Thermus thermophilus HB8 (endogenous in T. thermophilus HB8 cells)) (UniProt Q56242)
Test: co-IP; endogenous proteins of T. thermophilus HB8 lysate (50 mM Tris-HCl pH 7.5, 30 mM NaCl) treated with DNase I 0.5 mg/ml, 37°C 30 min; polyclonal rabbit antibody on Dynabeads-Protein A; Western blot

binding: no binding
B1: Thermus thermophilus HB8 MutS2 (endogenous) (protein, UniProt Q5SHT5 1-744)
chain: MRDVLEVLEFPRVRALLAERAKTPLGRELALALAPLPREEAEKRHELTGEALSYPYALPEAGTLREAYGRALAGARLSGPELLKAAKALEEAMALKEELLPLKNALSQVAEGIGDHTPFLERVRKALDEEGAVKDEASPRLAQIRRELRPLRQQILDRLYALMDRHREAFQDRFVTLRRERYCVPVRAGMAQKVPGILLDESESGATLFIEPFSVVKLNNRLQALRLKEEEEVNRILRDLSERLAKDEGVPKTLEALGLLDLVQAQAALARDLGLSRPAFGERYELYRAFHPLIPDAVRNSFALDEKNRILLISGPNMGGKTALLKTLGLAVLMAQSGLFVAAEKALLAWPDRVYADIGDEQSLQENLSTFAGHLRRLREMLEEATSHSLVLIDELGSGTDPEEGAALSQAILEALLERGVKGMVTTHLSPLKAFAQGREGIQNASMRFDLEALRPTYELVLGVPGRSYALAIARRLALPEEVLKRAEALLPEGGRLEALLERLEAERLALEAERERLRRELSQVERLRKALAEREARFEEERAERLKALEEEVRAELLKVEAELKALKEKARTEGKRDALRELMALRERYAKKAPPPPPPPGLAPGVLVEVPSLGKRGRVVELRGEEVLVQVGPLKMSLKPQEVKPLPEAEPGKPLLAKPRREVKEVDLRGLTVAEALLEVDQALEEARALGLSTLRLLHGKGTGALRQAIREALRRDKRVESFADAPPGEGGHGVTVVALRP
